Results published in article PMC8124066.
Results are given in words; binding and its absence hold for the method and conditions named. In cells and extracts the contact can be indirect. Some binding calls cover weakened binding; strength is not graded here.

Chains of the proteins cited; added tags and fusions are not shown.
UniProt P46935: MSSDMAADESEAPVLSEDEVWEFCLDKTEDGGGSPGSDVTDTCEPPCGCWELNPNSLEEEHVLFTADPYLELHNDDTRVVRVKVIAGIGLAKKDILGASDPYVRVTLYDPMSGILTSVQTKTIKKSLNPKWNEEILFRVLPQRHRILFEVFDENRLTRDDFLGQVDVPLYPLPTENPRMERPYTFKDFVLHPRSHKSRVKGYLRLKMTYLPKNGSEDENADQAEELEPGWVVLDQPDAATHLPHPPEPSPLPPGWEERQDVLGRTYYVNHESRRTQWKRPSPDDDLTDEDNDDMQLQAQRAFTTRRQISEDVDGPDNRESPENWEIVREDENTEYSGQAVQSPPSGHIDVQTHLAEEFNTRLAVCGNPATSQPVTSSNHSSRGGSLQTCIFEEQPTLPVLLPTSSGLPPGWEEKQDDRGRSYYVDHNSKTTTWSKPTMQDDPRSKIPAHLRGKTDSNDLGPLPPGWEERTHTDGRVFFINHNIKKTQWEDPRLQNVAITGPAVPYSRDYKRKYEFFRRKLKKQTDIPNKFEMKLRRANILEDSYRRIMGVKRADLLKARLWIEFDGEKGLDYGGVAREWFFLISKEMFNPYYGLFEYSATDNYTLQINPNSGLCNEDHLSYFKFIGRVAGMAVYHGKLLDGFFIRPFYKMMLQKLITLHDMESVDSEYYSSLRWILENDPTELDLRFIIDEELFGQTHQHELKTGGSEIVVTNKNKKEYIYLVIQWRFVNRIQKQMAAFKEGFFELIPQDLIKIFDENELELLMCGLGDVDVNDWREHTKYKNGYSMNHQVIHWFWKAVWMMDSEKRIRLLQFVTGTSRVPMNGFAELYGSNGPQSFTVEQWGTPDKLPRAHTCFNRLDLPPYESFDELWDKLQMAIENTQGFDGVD
UniProt Q08775: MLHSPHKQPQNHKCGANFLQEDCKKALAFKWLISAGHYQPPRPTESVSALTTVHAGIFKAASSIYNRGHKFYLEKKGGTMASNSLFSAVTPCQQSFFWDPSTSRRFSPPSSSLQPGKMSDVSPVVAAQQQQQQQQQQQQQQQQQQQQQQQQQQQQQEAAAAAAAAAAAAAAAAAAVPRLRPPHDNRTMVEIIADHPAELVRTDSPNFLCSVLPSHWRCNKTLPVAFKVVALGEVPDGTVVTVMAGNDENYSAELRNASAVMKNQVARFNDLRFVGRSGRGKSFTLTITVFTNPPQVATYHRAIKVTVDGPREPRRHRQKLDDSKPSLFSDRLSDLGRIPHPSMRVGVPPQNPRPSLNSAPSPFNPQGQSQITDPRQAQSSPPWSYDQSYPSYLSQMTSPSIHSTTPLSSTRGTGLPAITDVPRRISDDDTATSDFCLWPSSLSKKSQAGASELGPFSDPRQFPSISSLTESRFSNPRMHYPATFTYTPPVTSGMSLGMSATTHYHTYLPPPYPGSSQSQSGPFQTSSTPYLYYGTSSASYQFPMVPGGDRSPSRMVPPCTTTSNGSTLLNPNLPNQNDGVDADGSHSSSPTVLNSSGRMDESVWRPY

Legend:
[1] = target: Flag-tagged wild-type (wt) Nedd4 (UniProt P46935); test: co-IP; Myc-Runx2 co-transfected with flag-Nedd4 constructs in M-BMSCs; whole-cell lysates immunoprecipitated with anti-flag antibody, immunoblotted with anti-flag or anti-myc antibodies
[2] = target: neuronal precursor cell-expressed developmentally downregulated 4 (Nedd4), endogenous (mouse (endogenous in M-BMSCs)) (UniProt P46935); test: co-IP; endogenous proteins; M-BMSCs treated with beraprost (10 µM) for 12 h, lysed with RIPA buffer; whole-cell lysates used for IP with IgG, anti-Nedd4 or anti-Runx2 antibody, then immunoblotting
[3] = target: neuronal precursor cell-expressed developmentally downregulated 4 (Nedd4), endogenous (mouse (endogenous in M-BMSCs)) (UniProt P46935); test: co-IP; endogenous proteins; M-BMSCs treated with PBS, lysed with RIPA buffer; whole-cell lysates used for IP with IgG, anti-Nedd4 or anti-Runx2 antibody, then immunoblotting

Substance	binding [1]	binding [2]	binding [3]
Myc-Runx2 (from UniProt Q08775 1-607)	binds		
runt-related transcription factor 2 (Runx2), endogenous (from UniProt Q08775 1-607)		binds weakly	binds
